In the supplement of paper PMC12823440, “Inhibitors supercharge kinase turnover through native proteolytic circuits” (Nature, 2025):
This is one part of the list. The calls rarely recur for the same compound in another form.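 Kinases, fused to nanoluciferase, were expressed in K562 cells; luminescence was measured every 4 h from 2 to 18 h as percent of control (DMSO = 100%, positive control = 0%). A time point is decreased if signal falls significantly (2 sigma). Hits were called by the authors by a rule that is not shown; the count of time points alone does not decide it.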

Amino acid sequences for entries named in this document (tags omitted). A change or cut given only in a name is not applied to a line headed by its entry.
UniProt Q05397, whole entry, looked up: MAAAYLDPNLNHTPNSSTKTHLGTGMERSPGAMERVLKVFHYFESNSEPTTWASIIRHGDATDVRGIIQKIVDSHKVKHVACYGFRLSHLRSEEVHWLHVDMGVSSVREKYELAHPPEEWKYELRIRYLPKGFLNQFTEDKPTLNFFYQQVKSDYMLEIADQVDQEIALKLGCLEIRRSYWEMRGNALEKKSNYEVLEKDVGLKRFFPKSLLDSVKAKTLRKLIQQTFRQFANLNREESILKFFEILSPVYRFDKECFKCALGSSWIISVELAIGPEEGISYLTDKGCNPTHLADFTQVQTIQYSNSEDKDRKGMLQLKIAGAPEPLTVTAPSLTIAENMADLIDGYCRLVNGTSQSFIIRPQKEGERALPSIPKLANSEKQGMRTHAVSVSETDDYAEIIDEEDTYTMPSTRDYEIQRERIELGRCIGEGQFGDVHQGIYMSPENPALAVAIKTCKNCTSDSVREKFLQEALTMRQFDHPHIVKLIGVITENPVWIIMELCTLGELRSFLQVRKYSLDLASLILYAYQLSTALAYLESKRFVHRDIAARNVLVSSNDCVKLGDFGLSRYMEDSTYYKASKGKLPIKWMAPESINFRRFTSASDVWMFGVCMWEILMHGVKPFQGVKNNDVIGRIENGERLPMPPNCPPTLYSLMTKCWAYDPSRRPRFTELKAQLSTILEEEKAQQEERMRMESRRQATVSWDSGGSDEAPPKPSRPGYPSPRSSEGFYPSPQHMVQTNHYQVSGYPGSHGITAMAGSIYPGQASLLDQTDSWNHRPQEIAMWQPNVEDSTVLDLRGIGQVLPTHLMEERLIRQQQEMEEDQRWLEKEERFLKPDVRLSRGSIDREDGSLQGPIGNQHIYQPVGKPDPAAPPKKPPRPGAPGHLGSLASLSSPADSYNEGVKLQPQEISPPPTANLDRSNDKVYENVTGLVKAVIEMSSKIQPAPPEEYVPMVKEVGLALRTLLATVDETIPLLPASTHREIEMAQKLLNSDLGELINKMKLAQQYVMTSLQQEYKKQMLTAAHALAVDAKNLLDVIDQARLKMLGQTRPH
UniProt P07949, whole entry, looked up: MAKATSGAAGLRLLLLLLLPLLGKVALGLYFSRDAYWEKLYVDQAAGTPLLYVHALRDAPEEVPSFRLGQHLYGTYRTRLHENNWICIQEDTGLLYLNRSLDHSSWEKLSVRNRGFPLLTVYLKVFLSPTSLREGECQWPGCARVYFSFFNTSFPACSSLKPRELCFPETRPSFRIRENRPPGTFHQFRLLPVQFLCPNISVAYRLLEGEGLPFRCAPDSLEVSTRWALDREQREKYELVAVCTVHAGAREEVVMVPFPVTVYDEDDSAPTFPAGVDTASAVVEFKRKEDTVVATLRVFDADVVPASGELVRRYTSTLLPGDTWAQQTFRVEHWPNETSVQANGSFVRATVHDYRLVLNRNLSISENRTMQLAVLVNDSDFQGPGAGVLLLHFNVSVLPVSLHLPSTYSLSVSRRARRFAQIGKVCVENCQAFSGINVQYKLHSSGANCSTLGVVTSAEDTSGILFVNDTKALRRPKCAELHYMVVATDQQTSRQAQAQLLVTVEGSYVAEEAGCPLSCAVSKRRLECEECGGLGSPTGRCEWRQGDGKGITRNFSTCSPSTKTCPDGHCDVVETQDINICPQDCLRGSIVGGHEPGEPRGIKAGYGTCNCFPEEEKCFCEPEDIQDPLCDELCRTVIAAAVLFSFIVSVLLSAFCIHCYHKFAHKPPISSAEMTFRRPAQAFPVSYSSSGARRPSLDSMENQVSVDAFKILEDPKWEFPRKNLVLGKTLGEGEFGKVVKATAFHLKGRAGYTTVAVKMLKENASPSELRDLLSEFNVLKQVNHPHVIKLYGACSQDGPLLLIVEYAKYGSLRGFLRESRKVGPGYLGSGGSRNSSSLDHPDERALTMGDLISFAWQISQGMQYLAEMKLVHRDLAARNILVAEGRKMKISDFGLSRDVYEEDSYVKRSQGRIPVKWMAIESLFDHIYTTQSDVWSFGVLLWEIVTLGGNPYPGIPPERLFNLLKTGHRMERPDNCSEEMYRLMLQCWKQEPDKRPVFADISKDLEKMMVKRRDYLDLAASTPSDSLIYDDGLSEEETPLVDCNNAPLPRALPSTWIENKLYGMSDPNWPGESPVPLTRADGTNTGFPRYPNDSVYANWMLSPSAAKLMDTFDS
UniProt P07949, whole entry M918T, looked up: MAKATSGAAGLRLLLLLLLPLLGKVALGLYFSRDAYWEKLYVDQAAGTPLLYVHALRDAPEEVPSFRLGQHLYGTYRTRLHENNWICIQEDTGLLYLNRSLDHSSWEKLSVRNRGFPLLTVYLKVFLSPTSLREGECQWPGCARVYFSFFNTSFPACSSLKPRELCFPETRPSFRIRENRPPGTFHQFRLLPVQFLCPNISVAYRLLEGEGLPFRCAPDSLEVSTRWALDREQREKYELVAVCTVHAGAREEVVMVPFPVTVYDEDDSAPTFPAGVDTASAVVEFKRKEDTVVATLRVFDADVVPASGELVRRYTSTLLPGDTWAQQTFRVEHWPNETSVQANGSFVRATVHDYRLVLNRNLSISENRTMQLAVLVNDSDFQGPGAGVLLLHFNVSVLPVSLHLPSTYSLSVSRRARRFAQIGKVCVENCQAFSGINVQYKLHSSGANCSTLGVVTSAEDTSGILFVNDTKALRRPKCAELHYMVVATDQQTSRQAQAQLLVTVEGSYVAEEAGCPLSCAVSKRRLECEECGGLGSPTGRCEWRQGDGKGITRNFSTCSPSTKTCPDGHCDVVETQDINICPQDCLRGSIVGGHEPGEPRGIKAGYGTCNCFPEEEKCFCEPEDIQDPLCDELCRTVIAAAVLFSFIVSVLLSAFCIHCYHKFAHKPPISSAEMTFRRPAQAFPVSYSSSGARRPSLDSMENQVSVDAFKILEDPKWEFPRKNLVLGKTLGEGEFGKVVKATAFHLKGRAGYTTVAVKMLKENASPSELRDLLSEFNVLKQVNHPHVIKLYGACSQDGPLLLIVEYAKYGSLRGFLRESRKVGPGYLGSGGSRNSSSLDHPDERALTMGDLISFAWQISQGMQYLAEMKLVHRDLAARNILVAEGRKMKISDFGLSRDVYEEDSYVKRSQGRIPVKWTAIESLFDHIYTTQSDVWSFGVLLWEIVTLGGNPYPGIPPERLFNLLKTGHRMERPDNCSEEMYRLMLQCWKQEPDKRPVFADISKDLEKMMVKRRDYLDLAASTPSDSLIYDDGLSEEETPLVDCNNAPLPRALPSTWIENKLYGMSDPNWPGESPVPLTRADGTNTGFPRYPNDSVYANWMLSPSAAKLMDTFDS
UniProt Q13546: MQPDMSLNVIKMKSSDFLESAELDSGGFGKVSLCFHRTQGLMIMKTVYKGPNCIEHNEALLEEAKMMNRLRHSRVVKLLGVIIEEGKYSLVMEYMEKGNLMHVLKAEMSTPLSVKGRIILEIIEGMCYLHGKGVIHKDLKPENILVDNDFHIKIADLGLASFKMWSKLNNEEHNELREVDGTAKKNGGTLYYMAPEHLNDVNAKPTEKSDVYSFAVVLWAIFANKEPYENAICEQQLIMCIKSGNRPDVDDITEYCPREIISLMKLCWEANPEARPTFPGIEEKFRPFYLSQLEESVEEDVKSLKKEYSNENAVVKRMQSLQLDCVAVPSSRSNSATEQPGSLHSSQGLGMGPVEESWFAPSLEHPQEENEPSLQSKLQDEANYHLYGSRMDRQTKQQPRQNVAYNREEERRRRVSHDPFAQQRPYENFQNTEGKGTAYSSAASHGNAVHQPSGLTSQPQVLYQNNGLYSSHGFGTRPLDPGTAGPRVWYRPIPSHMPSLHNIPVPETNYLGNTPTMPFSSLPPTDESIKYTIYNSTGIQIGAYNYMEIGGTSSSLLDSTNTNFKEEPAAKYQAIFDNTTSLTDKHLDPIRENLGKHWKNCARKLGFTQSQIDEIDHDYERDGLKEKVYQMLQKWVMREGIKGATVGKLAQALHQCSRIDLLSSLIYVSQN
UniProt Q01974, whole entry: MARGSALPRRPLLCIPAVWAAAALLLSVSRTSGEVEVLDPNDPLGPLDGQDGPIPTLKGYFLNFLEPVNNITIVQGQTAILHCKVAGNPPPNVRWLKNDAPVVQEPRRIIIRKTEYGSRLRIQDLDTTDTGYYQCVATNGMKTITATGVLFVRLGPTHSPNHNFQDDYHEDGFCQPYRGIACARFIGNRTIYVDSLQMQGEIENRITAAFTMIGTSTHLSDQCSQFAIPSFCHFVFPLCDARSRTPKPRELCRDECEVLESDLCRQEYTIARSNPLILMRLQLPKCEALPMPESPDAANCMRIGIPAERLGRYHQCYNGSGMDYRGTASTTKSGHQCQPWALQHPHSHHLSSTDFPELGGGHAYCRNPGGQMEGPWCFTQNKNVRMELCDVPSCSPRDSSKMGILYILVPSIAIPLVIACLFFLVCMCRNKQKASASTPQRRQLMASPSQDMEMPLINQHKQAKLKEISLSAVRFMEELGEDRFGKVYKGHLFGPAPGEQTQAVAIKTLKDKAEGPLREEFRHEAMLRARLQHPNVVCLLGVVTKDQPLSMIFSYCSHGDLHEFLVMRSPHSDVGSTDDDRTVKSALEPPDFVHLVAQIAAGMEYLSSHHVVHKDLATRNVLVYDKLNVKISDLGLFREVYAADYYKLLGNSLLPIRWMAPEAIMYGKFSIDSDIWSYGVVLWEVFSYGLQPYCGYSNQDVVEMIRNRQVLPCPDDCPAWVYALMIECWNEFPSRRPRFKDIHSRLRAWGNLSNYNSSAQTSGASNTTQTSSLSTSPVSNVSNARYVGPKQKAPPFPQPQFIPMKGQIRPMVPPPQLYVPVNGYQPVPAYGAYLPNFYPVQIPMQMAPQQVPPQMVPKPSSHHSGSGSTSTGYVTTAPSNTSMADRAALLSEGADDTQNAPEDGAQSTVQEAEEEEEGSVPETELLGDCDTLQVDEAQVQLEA
UniProt Q9NYA1, whole entry: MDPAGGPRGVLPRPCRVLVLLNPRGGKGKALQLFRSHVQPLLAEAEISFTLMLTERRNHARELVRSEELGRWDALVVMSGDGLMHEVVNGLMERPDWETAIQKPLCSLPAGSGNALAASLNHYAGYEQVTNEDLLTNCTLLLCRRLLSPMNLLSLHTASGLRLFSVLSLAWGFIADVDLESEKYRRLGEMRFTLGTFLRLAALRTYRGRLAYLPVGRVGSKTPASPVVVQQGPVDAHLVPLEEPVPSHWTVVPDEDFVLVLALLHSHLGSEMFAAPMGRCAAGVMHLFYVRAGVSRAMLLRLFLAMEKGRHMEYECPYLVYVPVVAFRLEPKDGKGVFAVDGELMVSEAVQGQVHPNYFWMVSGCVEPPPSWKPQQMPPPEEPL
UniProt Q15208: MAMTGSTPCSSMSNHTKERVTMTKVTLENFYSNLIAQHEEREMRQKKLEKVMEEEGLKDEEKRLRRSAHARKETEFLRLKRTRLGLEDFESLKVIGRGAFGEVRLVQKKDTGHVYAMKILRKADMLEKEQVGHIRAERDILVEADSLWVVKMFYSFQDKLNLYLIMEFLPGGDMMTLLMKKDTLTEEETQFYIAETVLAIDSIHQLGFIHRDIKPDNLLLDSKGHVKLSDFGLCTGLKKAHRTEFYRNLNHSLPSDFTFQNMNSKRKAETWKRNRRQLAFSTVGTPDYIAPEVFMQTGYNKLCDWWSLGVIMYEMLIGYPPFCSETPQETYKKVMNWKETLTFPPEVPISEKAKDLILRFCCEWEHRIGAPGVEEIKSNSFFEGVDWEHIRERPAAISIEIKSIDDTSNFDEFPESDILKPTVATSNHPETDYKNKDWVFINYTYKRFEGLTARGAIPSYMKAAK

Legend:
Experiment in all cases: number of time points (of 5) at which kinase-Nluc abundance scored as decreased, DMSO-normalised (count); higher = more persistent destabilization
Settings in all cases: K562; 2-18 h
PRKCA = PRKCA (UniProt P17252)
PTK2 = PTK2 (UniProt Q05397)
PTK2B = PTK2B (UniProt Q14289)
RAF1 = RAF1 (UniProt P04049)
[1] = molecular target: RAF1_S257L (clone: RAF1_mut) (UniProt P04049)
RET = RET (UniProt P07949)
[2] = molecular target: RET_M918T (clone: RET_mut) (UniProt P07949)
RIOK1 = RIOK1 (UniProt Q9BRS2)
RIPK1 = RIPK1 (UniProt Q13546)
ROR2 = ROR2 (UniProt Q01974)
RPS6KA1 = RPS6KA1 (UniProt Q15418)
SPHK1 = SPHK1 (UniProt Q9NYA1)
SRC = SRC (UniProt P12931)
STK24 = STK24 (UniProt Q9Y6E0)
STK38 = STK38 (UniProt Q15208)
SYK = SYK (UniProt P43405)
TEC = TEC (UniProt P42680)
TYK2 = TYK2 (UniProt P29597)
ULK3 = ULK3 (UniProt Q6PHR2)
RIPK2 = RIPK2 (UniProt O43353)

SMILES: COCCOc1cc2nccc(Nc3n[nH]c(C)c3C)c2cc1S(=O)(=O)C(C)(C)C [RIP2 kinase inhibitor 2] (2.5 µM)
- number of time points (PRKCA): 0
- number of time points (PTK2): 0
- number of time points (PTK2B): 0
- number of time points (RAF1): 0
- number of time points [1]: 0
- number of time points (RET): 0
- number of time points [2]: 0
- number of time points (RIOK1): 0
- number of time points (RIPK1): 0
- number of time points (ROR2): 0
- number of time points (RPS6KA1): 0
- number of time points (SPHK1): 0
- number of time points (SRC): 0
- number of time points (STK24): 0
- number of time points (STK38): 0
- number of time points (SYK): 0
- number of time points (TEC): 0
- number of time points (TYK2): 0
- number of time points (ULK3): 0

SMILES: Cc1ccc(NC(=O)Nc2nnc(Sc3ncnc4cc(OCCCN5CCOCC5)ccc34)s2)cc1 (10 µM)
- number of time points (PRKCA): 0
- number of time points (PTK2): 0
- number of time points (PTK2B): 0
- number of time points (RAF1): 0
- number of time points [1]: 0
- number of time points (RIOK1): 0
- number of time points (RIPK1): 0
- number of time points (RIPK2): 0
- number of time points (ROR2): 0
- number of time points (RPS6KA1): 0
- number of time points (SPHK1): 0
- number of time points (SRC): 0
- number of time points (STK24): 0
- number of time points (STK38): 0
- number of time points (SYK): 0
- number of time points (TEC): 0
- number of time points (TYK2): 0
- number of time points (ULK3): 0

SMILES: Cc1cc(C(=O)Nc2cccc(C(=O)Nc3cccc(C(F)(F)F)c3)c2)on1 (10 µM)
- number of time points (PRKCA): 0
- number of time points (PTK2): 0
- number of time points (PTK2B): 0
- number of time points (RAF1): 0
- number of time points [1]: 0
- number of time points (RET): 0
- number of time points [2]: 0
- number of time points (RIOK1): 0
- number of time points (RIPK1): 0
- number of time points (RIPK2): 0
- number of time points (ROR2): 0
- number of time points (RPS6KA1): 0
- number of time points (SPHK1): 0
- number of time points (SRC): 0
- number of time points (STK24): 0
- number of time points (STK38): 0
- number of time points (SYK): 0
- number of time points (TEC): 0
- number of time points (TYK2): 0
- number of time points (ULK3): 0

SMILES: CCc1nc(-c2cccc(C)c2)c(-c2ccnc(NC(=O)c3ccccc3)c2)s1 (10 µM)
- number of time points (PRKCA): 0
- number of time points (PTK2): 0
- number of time points (RAF1): 0
- number of time points [1]: 0
- number of time points (RET): 0
- number of time points [2]: 0
- number of time points (RIOK1): 0
- number of time points (RIPK1): 0
- number of time points (RIPK2): 0
- number of time points (ROR2): 0
- number of time points (RPS6KA1): 0
- number of time points (SPHK1): 0
- number of time points (SRC): 0
- number of time points (STK24): 0
- number of time points (STK38): 0
- number of time points (SYK): 0
- number of time points (TEC): 0
- number of time points (TYK2): 0
- number of time points (ULK3): 0

SMILES: COc1c(CC=C(C)C)c(O)cc2oc(=O)c(-c3ccc(O)cc3O)cc12 [Glycycoumarin] (10 µM)
- number of time points (PRKCA): 0
- number of time points (PTK2): 0
- number of time points (PTK2B): 0
- number of time points (RAF1): 0
- number of time points [1]: 0
- number of time points (RET): 0
- number of time points [2]: 0
- number of time points (RIOK1): 0
- number of time points (RIPK1): 0
- number of time points (RIPK2): 0
- number of time points (ROR2): 0
- number of time points (RPS6KA1): 0
- number of time points (SPHK1): 0
- number of time points (SRC): 0
- number of time points (STK24): 0
- number of time points (STK38): 0
- number of time points (SYK): 0
- number of time points (TEC): 0
- number of time points (TYK2): 0
- number of time points (ULK3): 0

SMILES: CCOc1cc2ncc(-c3cc(N)nc(F)c3)n2cc1S(=O)(=O)C(C)(C)C (10 µM)
- number of time points (PRKCA): 0
- number of time points (PTK2): 0
- number of time points (PTK2B): 0
- number of time points (RAF1): 0
- number of time points [1]: 0
- number of time points (RET): 0
- number of time points [2]: 0
- number of time points (RIOK1): 0
- number of time points (RIPK1): 0
- number of time points (ROR2): 0
- number of time points (RPS6KA1): 0
- number of time points (SPHK1): 0
- number of time points (SRC): 0
- number of time points (STK24): 0
- number of time points (STK38): 0
- number of time points (SYK): 0
- number of time points (TEC): 0
- number of time points (TYK2): 0
- number of time points (ULK3): 0

SMILES: CN(c1ncccc1CNc1nc(Nc2ccc3c(c2)CC(=O)N3)ncc1C(F)(F)F)S(C)(=O)=O (2.5 µM)
- number of time points (PRKCA): 0
- number of time points (RAF1): 0
- number of time points [1]: 2
- number of time points (RET): 0
- number of time points [2]: 1
- number of time points (RIOK1): 2
- number of time points (RIPK1): 2
- number of time points (RIPK2): 0
- number of time points (ROR2): 0
- number of time points (RPS6KA1): 0
- number of time points (SPHK1): 0
- number of time points (SRC): 0
- number of time points (STK24): 0
- number of time points (STK38): 0
- number of time points (SYK): 0
- number of time points (TEC): 0
- number of time points (TYK2): 0
- number of time points (ULK3): 0

SMILES: Cc1ncc(-c2ccnc(Nc3ccc(S(C)(=O)=O)cc3)n2)n1C(C)C (2.5 µM)
- number of time points (PRKCA): 0
- number of time points (PTK2): 0
- number of time points (PTK2B): 0
- number of time points (RAF1): 0
- number of time points [1]: 3
- number of time points (RET): 0
- number of time points [2]: 0
- number of time points (RIOK1): 0
- number of time points (RIPK1): 2
- number of time points (RIPK2): 0
- number of time points (ROR2): 0
- number of time points (RPS6KA1): 0
- number of time points (SPHK1): 0
- number of time points (SRC): 0
- number of time points (STK24): 0
- number of time points (STK38): 0
- number of time points (SYK): 0
- number of time points (TEC): 1
- number of time points (TYK2): 0
- number of time points (ULK3): 0

SMILES: O=c1c(-c2ccc(O)cc2)coc2cc(O)cc(O)c12 [Genistein] (10 µM)
- number of time points (PRKCA): 0
- number of time points (PTK2): 0
- number of time points (PTK2B): 0
- number of time points (RAF1): 0
- number of time points [1]: 0
- number of time points (RET): 0
- number of time points [2]: 0
- number of time points (RIOK1): 0
- number of time points (RIPK1): 0
- number of time points (RIPK2): 0
- number of time points (ROR2): 0
- number of time points (RPS6KA1): 0
- number of time points (SPHK1): 0
- number of time points (SRC): 0
- number of time points (STK24): 0
- number of time points (STK38): 0
- number of time points (TEC): 0
- number of time points (TYK2): 0
- number of time points (ULK3): 0

SMILES: CNC(=O)c1ccccc1Nc1nc(Nc2ccc(N3CCOCC3)cc2OC)ncc1Cl (2.5 µM)
- number of time points (PRKCA): 0
- number of time points (PTK2): 0
- number of time points (PTK2B): 0
- number of time points (RAF1): 0
- number of time points [1]: 0
- number of time points (RIOK1): 0
- number of time points (RIPK1): 0
- number of time points (RIPK2): 0
- number of time points (ROR2): 0
- number of time points (RPS6KA1): 0
- number of time points (SPHK1): 0
- number of time points (SRC): 0
- number of time points (STK24): 0
- number of time points (STK38): 0
- number of time points (SYK): 0
- number of time points (TEC): 0
- number of time points (TYK2): 0
- number of time points (ULK3): 0
